Data from US20040170969A1.
Results are given in words; binding and its absence hold for the method and conditions named. In cells and extracts the contact can be indirect. Some binding calls cover weakened binding; strength is not graded here. For part of these data: Where a sequence is shown, tags or fusion partners need not be part of it.

Protein sequences, listed by entry. Tags and fused reporters are not part of them. Lines headed by an entry give the natural chain unless they say otherwise; changes in a name come on top. Chains listed by the source or under a name are the forms on record and can include a tag or linker. Residues count along the entry.
UniProt P62318: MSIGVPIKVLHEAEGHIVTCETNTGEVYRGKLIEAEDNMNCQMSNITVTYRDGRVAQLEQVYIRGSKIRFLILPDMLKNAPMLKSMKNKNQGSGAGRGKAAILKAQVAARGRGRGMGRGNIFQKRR
pICln (GI 4502891) (P54105, residues 2-237): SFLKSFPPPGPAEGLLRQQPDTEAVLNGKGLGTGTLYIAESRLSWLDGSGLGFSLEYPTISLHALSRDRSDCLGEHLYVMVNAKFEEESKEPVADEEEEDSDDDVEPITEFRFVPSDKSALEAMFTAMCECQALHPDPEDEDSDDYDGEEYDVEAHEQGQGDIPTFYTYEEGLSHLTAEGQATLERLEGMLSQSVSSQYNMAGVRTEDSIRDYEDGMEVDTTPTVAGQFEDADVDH
FLAG-pICln (P54105, form named): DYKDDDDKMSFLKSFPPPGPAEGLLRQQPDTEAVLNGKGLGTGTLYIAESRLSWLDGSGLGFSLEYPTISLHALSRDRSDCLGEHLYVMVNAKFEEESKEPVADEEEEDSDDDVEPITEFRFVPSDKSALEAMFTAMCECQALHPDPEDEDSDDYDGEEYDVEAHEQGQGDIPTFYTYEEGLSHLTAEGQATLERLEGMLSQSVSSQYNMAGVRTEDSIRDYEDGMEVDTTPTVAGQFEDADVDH
protein 4.1 isoB (GI 182074) (P11171, form named): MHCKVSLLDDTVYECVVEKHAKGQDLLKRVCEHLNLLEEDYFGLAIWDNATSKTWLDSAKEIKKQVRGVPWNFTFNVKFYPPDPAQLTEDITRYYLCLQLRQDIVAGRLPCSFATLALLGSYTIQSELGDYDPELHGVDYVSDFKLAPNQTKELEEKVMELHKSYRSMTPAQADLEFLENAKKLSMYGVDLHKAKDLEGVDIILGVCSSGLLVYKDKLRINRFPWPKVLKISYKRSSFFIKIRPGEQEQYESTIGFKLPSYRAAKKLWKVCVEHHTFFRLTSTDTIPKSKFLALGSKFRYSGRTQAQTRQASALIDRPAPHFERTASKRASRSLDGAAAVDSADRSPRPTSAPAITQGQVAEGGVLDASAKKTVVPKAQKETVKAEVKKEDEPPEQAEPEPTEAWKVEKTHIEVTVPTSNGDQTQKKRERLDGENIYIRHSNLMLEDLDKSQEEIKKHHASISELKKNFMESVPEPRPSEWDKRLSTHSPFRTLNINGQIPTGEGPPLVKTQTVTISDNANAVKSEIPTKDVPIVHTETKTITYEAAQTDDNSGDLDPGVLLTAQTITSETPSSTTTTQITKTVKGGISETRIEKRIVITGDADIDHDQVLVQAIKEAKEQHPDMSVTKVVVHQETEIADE
UniProt O14744: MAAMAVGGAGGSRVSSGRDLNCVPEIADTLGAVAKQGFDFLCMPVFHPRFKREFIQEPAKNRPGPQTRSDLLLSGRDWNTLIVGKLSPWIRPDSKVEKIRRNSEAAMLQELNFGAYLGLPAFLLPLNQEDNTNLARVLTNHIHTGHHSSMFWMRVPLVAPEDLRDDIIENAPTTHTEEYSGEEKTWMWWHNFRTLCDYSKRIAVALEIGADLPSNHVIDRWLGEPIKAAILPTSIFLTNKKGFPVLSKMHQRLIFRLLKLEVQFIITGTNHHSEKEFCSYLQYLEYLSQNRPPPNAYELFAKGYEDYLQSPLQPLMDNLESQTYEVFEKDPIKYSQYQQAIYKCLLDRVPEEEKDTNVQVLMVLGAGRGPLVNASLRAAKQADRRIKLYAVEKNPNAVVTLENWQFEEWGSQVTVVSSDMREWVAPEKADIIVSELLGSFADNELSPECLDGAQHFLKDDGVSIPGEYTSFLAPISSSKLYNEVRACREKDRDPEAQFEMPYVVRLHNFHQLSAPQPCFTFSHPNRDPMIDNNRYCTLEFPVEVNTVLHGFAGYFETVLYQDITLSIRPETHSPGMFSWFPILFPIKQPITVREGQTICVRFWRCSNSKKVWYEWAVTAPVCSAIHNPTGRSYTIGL
UniProt P57678: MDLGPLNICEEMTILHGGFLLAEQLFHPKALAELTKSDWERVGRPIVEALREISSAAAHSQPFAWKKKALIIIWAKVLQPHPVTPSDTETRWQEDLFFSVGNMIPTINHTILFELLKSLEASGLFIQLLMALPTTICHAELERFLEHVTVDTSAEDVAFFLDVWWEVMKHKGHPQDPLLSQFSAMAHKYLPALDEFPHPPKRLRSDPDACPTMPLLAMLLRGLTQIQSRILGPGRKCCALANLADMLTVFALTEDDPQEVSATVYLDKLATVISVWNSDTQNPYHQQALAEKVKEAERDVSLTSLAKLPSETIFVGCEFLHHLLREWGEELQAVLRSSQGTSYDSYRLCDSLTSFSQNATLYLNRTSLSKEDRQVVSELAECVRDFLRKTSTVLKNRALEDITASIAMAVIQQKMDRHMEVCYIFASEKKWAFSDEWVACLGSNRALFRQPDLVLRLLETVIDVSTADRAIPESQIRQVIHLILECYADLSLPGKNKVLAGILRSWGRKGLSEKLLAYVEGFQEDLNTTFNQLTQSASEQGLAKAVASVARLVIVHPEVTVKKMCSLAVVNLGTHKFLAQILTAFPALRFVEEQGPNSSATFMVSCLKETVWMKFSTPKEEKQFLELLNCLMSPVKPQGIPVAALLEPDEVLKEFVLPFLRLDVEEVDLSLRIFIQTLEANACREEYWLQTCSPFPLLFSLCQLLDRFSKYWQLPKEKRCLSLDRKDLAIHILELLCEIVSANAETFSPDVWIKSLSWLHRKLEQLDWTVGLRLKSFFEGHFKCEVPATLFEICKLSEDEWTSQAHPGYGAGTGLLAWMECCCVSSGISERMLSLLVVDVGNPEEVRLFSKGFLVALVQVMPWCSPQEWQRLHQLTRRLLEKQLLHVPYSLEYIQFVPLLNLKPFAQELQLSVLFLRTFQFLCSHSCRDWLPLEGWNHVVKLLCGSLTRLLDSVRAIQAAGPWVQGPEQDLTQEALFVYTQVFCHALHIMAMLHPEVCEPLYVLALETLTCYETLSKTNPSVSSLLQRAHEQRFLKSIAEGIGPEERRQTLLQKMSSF

Columns and labels:
[1] = target: smD3 (bait) (UniProt P62318); assay: co-IP with smD3 bait, MS
[2] = target: FLAG-pICln (human) (UniProt P54105); assay: anti-FLAG co-IP of FLAG-pICln from 293T cells, MS
[3] = target: FLAG-pICln (human) (UniProt P54105); assay: anti-FLAG co-IP of FLAG-pICln, MS
[4] = target: T1, Flag-epitope-tagged murine Ras-GRF2 (murine) (UniProt P70392); assay: anti-FLAG co-IP of Flag-GRF2 from 293 cells, MS
T1 sequence (looked up): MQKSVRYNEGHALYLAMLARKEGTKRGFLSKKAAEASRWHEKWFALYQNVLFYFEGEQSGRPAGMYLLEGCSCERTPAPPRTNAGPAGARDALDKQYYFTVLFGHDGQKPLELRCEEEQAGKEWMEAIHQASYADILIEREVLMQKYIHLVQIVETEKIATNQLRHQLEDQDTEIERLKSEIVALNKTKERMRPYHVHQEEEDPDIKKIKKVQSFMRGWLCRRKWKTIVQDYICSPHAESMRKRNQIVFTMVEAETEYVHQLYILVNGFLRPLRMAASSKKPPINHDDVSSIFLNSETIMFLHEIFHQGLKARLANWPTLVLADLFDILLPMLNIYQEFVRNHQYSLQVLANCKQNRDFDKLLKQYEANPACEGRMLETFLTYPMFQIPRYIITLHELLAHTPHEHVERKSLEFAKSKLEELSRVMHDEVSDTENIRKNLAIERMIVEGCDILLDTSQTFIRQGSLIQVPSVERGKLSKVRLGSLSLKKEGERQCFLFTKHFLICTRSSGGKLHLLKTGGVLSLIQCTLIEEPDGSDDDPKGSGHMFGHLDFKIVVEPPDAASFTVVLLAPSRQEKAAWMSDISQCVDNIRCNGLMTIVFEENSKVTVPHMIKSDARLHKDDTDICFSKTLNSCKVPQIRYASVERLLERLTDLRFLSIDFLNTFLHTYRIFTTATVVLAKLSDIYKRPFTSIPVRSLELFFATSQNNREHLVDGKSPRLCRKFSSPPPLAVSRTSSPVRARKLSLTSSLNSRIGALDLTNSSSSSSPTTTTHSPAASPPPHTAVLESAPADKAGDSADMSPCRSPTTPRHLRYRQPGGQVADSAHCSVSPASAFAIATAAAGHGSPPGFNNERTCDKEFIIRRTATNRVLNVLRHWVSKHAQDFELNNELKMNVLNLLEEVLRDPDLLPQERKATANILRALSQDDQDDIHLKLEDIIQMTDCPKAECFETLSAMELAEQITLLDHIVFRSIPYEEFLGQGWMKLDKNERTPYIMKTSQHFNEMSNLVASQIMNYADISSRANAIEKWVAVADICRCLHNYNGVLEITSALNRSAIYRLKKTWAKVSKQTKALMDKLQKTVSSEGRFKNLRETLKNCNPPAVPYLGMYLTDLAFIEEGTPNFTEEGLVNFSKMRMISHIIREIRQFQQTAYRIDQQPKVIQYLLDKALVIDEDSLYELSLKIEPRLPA

[5] = target: T1, Flag-epitope-tagged murine Ras-GRF2 (murine); assay: anti-FLAG co-IP of Flag-GRF2, MS
[6] = target: 4.1SVWL2 (bait) (human) (UniProt P11171); assay: co-IP with 4.1SVWL2 bait, MS

Substance	binding [1]	binding [2]	binding [3]	further results
SMD3 (GI 4759160) (from UniProt P62318 2-126)		binds	binds	
Skb1 (GI 2323410) (from UniProt O14744 1-637) (enzyme)				binding [4]: binds; binding [5]: binds
pICln (GI 4502891) (from UniProt P54105 2-237)				binding [6]: binds
protein 4.1 isoB (GI 182074) (from UniProt P11171 1-641)		binds	binds	

Second part, led by results:

binding [1]	binding [2]	binding [3]	Substance	further results
binds			DKFZP434D174 protein (GI 11094403) (from UniProt P57678 1-1058)	
binds			gemin4 (GI 7657122) (from UniProt P57678 1-1058)	
